Experimental data: EP4076432B1, “COMPOSITION AND METHOD FOR THE PREVENTION AND TREATMENT OF OBESITY” (Vector Vitale IP LLC, priority 2019, dated 2021)

Assay: Levels of divalent metal ions in muscles, kidneys and liver in obesity model
Type: in vivo
Settings: DIO rats (high-fat diet), zinc aspartate 4.5 mg/animal intragastrically every third day, week 10

N[C@@H](CC(=O)[O-])C(=O)[O-].[Zn+2] [^64Zne, zinc aspartate]
Copper level, Kidneys (kidneys): 4.94±0.82 µg/g tissue | Copper level, Liver (liver): 3.93±0.09 µg/g tissue | Manganese level, Liver (liver): 1.94±0.12 µg/g tissue
